{"source": "patent US7534768B2", "about": "“Treatment of DNA viral infections” (Henderson Morely Research and Development Ltd., priority 2000, dated 2009)", "origin": "cited, not measured here", "system": "plasma proteins, mainly albumin", "conditions": "cited from earlier work"}
{"molecule": "NS(=O)(=O)c1cc(C(=O)O)c(NCc2ccco2)cc1Cl", "note": "[frusemide, 4-chloro-N-furfuryl-5-sulfamoylanthranilic acid]", "values": [{"measurement": "unbound fraction", "setting": "at therapeutic concentrations", "result": "2.3-4.1%"}, {"measurement": "bound to plasma proteins", "setting": "plasma concentrations ranging from 1 to 400 mcg/ml, healthy individuals", "result": "91-99%"}]}
